The list shows a part of the results.

This assay deals with T1, OsSMF1 (Oryza sativa, UniProt Q6ZLB0 1-436).
T1 sequence: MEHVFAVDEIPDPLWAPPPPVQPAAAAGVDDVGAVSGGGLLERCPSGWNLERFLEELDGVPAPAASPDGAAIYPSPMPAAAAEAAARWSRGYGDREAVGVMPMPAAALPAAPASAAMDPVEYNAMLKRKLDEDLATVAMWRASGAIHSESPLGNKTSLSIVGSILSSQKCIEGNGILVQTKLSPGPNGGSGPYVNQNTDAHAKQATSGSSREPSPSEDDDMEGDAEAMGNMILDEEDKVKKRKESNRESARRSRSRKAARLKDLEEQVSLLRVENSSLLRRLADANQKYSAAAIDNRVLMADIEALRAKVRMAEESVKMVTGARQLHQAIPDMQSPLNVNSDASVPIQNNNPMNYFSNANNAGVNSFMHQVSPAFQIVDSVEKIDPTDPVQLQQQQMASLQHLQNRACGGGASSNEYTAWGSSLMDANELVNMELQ
In words: protein-binding microarray (RPBM); PBS, 2% BSA, 51.3 ng/ul salmon testes DNA, 50 uM zinc acetate, 200 nM TF, 25 C, 1 h; high values mean tight binding. Conditions: protein: recombinant; tags: N-terminal polyhistidine and DsRed monomer fusion (pET32a); chain copies: 2; label: CyDye5-dUTP incorporated in the synthesized complementary strand; 3' TTTTT single-stranded linker to array surface; dsDNA, one strand shown. The method in brief:
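The binding signal is fluorescence intensity per array feature (arbitrary units). Readings came from an Axon 4000B scanner after a washed, 2% BSA-blocked, double-stranded custom Agilent array had been incubated for 1 h at 25 °C with 200 nM protein and 50 µM zinc acetate. The protein was a Ni–NTA-purified transcription factor fused N-terminally to polyhistidine and DsRed, expressed in E. coli BL21-CodonPlus.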
Regarding “CCTCCTCCGCCCAGTGACATGCCACCCGCCGCCGCCGCCGCGGAGTCACCTAGTGCAG”, the binding signal is 3980 fluorescence intensity (a.u.).
On to “ATTTGGCTAACAATTTTATCCACCGATCCACTCGTGCCACCGGAGTCACCTAGTGCAG”, for which the binding signal was 35500 fluorescence intensity (a.u.).
In the case of “GCCACGCCCAACCCGTGTCACTGTCACGTGGGCCCCACCCCGGAGTCACCTAGTGCAG”, the binding signal is 7720 fluorescence intensity (a.u.).
For the sequence “GCCCATCGCCTCCTCCTCGAGCCACCGCGCTGCCGTGTGCCGGAGTCACCTAGTGCAG”, the binding signal is 3150 fluorescence intensity (a.u.).
Consider “CTCGATCACACACGGTGTCACAGTCACAGGTGCATTGACGCGGAGTCACCTAGTGCAG”, for which the binding signal is 7140 fluorescence intensity (a.u.).
As to “TATGCATGCATGTACGGTGCTGTACAGGTATGTGTGATCGCGGAGTCACCTAGTGCAG”, the binding signal is 4780 fluorescence intensity (a.u.).
On to “AGCGGGAGAAACGGTCTCCGTGACTCACTGACAAGGTGGGCGGAGTCACCTAGTGCAG”, for which the binding signal is 13300 fluorescence intensity (a.u.).
Consider “CAGCACAAGTGTCGTCGTCTCTCCGTTTCTTGTGCAGTTTCGGAGTCACCTAGTGCAG”, for which the binding signal is 3360 fluorescence intensity (a.u.).
Turning to “TGGAGAGAGGGATTTCATCATCAGGAAGGTCCACAGATCTCGGAGTCACCTAGTGCAG”, the binding signal was 35100 fluorescence intensity (a.u.).
In the case of “TGCCTCTCACGTACTGACACTGTTGCGCACACGCACGCACCGGAGTCACCTAGTGCAG”, the binding signal is 3180 fluorescence intensity (a.u.).
Consider “TTATATGCCTCAAGTGACTAGGATAGCATCCTCGCTAATACGGAGTCACCTAGTGCAG”, for which the binding signal was 3720 fluorescence intensity (a.u.).
Consider “TTTTAACAGTGCCTGCAACATGTTGGGTGTCTCAGAACATCGGAGTCACCTAGTGCAG”, for which the binding signal is 10600 fluorescence intensity (a.u.).
Take “GTCTTCCGCGGCGGCGGCGGGGAAGCGGGCGCGGGCGGGGCGGAGTCACCTAGTGCAG”: the binding signal is 4180 fluorescence intensity (a.u.).
Consider “ATCAGAAACTTCCCTTAGATTGAAGAGTCAAACCTCATTCCGGAGTCACCTAGTGCAG”, for which the binding signal is 3470 fluorescence intensity (a.u.).
Consider “AGAAACAACCACTTTTCTTAGATGTTCCATGATAAAAGGCCGGAGTCACCTAGTGCAG”, for which the binding signal is 5840 fluorescence intensity (a.u.).
With “CACCACCTGAGTCACTGACACGTGGGCCCCATCGCTCTCCCGGAGTCACCTAGTGCAG” the figure was 15400 fluorescence intensity (a.u.); with “GAGGCCCTGGTTTAGCGTCACGCGCCCGCCACACTGTCCTCGGAGTCACCTAGTGCAG”, 5920 fluorescence intensity (a.u.).
As for “CGGTGCCGCGTCGACGCCGCCTCCGCCGACGCCATCCTCTCGGAGTCACCTAGTGCAG”, the binding signal is 5610 fluorescence intensity (a.u.).
As for “GACTGGAGCGCCACGCATTCTCCCTCCATGGATCCTCCTGCGGAGTCACCTAGTGCAG”, the figure is 4740 fluorescence intensity (a.u.); as for “CGACTCGACTTGAATGCTCGTAGAGCACGCAACCACACTGCGGAGTCACCTAGTGCAG”, 3230 fluorescence intensity (a.u.); as for “TAAGCCATATATAATCACACTGTACACTGATTTTCAGACTCGGAGTCACCTAGTGCAG”, 3450 fluorescence intensity (a.u.).
Take “ACCGACCGCGGTGCTCCCTGAGGGCTGGGCCATGCTACGGCGGAGTCACCTAGTGCAG”: the binding signal is 3940 fluorescence intensity (a.u.).
As for “GTCTCTCTGTGTTGTACACGTTTTCTCCAGCTACACCTTGCGGAGTCACCTAGTGCAG”, the binding signal is 5740 fluorescence intensity (a.u.).
Consider “ACATGGGCCGCAATCAGGTCACGTGGCTAGGCCTTGGGCCCGGAGTCACCTAGTGCAG”, for which the binding signal is 3230 fluorescence intensity (a.u.).
As to “CATTATCTAAGTTTCTTTACGTCATTATCTTCGTTTAATTCGGAGTCACCTAGTGCAG”, the binding signal was 3230 fluorescence intensity (a.u.).
Consider “TAATACTACTACTCCTACCCTGACGCGTGACCCGGCCGGTCGGAGTCACCTAGTGCAG”, for which the binding signal was 3430 fluorescence intensity (a.u.).
As to “CTAGTCTAGCCAAACGTAACCACTGTCATGATAGCAATACCGGAGTCACCTAGTGCAG”, the binding signal was 4520 fluorescence intensity (a.u.).
In the case of “GAAATCGGATCCCCTTGACGCAATCCTCTGGTTGGCATGACGGAGTCACCTAGTGCAG”, the binding signal is 3170 fluorescence intensity (a.u.).
As for “CCGGTATTTGTAAATGGCCAAAGGAAGCAAACCATTAGGCCGGAGTCACCTAGTGCAG”, the binding signal is 3320 fluorescence intensity (a.u.).
As for “AGGAGCTCCTGTCAGTTGAGAAGCGACAGTTATAAAATGTCGGAGTCACCTAGTGCAG”, the figure is 3510 fluorescence intensity (a.u.); as for “AGCGGTGCTGTCGTAGGGCTAGTCGCCACCTTCGGCTCTACGGAGTCACCTAGTGCAG”, 17200 fluorescence intensity (a.u.); as for “GCCCACAATGTCGTCCGTCCAGCGCAGCGCAAAACTGGGGCGGAGTCACCTAGTGCAG”, 3560 fluorescence intensity (a.u.).
As to “TATGTCACCGGATTTGGCCATGTCACTGGACGCTGCGGTCCGGAGTCACCTAGTGCAG”, the binding signal was 24700 fluorescence intensity (a.u.).
As for “TCCACTCTCTGACTTTAATATTTACCACACGTTTGCAACTCGGAGTCACCTAGTGCAG”, the binding signal was 3370 fluorescence intensity (a.u.).
Turning to “GAAGGGTGGGGCACGCACGCCACGCGGCGGAAGCGGTGCGCGGAGTCACCTAGTGCAG”, the binding signal was 4600 fluorescence intensity (a.u.).
With “TGGTTGTCGTCGTCGTAGTCTTGTGGGTTGCGTGCGTGCGCGGAGTCACCTAGTGCAG” the figure was 3930 fluorescence intensity (a.u.); with “GTCTCTGGTGTCACTGTCACACGTAGCTTTTGATGAAGTTCGGAGTCACCTAGTGCAG”, 3360 fluorescence intensity (a.u.); with “GTGCTGAGTGCTGACTGGAAGCAGACAAGAACTTCTCTAGCGGAGTCACCTAGTGCAG”, 3930 fluorescence intensity (a.u.).
As for “TCCATCCATTTCACCATGTGTTTCCATGTAAGAATGTGATCGGAGTCACCTAGTGCAG”, the binding signal is 3490 fluorescence intensity (a.u.).
As for “GTTATTGGAGCGGCTGAGTCAGAAATTTGGCCTTCAGAGACGGAGTCACCTAGTGCAG”, the figure is 7590 fluorescence intensity (a.u.); as for “TGCCAGTGCTATCCGTCGCCACCTACCACCTTACAACGGTCGGAGTCACCTAGTGCAG”, 3530 fluorescence intensity (a.u.); as for “ATTCAGCGTCATGCTATTTGGCGCTGAGGTGTCTAAATTCCGGAGTCACCTAGTGCAG”, 3820 fluorescence intensity (a.u.).

(Values after article PMC7819943, “Rice protein-binding microarrays: a tool to detect cis-acting elements near promoter regions in rice”.)
